“And” between values parts separate entries of the source, which are not always exact repeats. Equal entries are not always repeated. Screen size: about 580,000 compounds; about 6,100 (1.1%) were called active. The inconclusive results got no clear call from the source; some entries with a clear call stand among them for comparison. Calls follow the shape of the dose curve; as a rule, active = well fitted inhibition curve with a large enough effect; inconclusive = small, poorly fitted or top-dose-only effect, or another doubt; inactive = no such curve, though single readings can be large or run the other way. Potencies of inconclusive entries are doubtful fits and often do not repeat.
Target: Polyunsaturated fatty acid lipoxygenase ALOX12 (Homo sapiens) (UniProt P18054)
Test: Primary qHTS assay for inhibitors of human arachidonate 12S-lipoxygenase (ALOX12): Round 2
Conditions: purified 12hLO, xylenol orange hydroperoxide absorbance; activity change, negative = inhibition: at 108 µM (top of the series) unless noted
Outline: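 Hydroperoxide product was detected by ferrous iron/xylenol orange as the 573 to 405 nm absorbance ratio. Arachidonic acid at 40 uM (final) was turned over for 30 min at room temperature by 150 nM human 12hLO, pH 7.0 Hepes buffer, after 15 min compound preincubation.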
% is scaled to controls: 0 for no effect and ±100 for the full control effect; potency is read from the fitted curve at half-maximal effect.

Protein sequences, listed by entry. Tags and fused reporters are not part of them.
UniProt P18054, whole entry, looked up: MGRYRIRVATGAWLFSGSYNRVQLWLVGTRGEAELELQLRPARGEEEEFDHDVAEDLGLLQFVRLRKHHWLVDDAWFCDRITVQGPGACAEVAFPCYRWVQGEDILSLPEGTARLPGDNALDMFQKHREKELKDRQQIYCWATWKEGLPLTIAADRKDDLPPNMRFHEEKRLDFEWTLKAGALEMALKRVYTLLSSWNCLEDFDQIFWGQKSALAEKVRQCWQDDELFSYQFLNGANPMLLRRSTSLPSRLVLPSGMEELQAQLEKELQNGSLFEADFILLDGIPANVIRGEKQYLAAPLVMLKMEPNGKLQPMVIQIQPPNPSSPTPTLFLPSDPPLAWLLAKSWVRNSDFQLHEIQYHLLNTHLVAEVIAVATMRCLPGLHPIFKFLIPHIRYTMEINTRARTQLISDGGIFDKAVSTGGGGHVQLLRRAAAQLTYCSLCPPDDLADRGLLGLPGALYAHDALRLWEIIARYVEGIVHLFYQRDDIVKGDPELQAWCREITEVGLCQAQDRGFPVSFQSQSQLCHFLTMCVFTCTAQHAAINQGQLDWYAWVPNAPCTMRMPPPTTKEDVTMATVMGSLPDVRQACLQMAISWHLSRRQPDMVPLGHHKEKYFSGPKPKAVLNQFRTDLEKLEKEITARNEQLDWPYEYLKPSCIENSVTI

Compound	activity change, negative = inhibition	Potency
CN1C(=O)c2cccn2CC1CNC(=O)COc1ccccc1 (stereo not given)	inactive: 53.4%	–
CCc1cccc2c(C(CC(=O)NCCc3ccc(OC)c(OC)c3)c3cccc(OC)c3)c[nH]c12 (stereo not given)	–	inconclusive: 20 µM [inhibitor, full curve, poor fit]
CCc1ccc2c(c1)Sc1ccccc1CC2N1CCN(C)CC1 (stereo not given)	–	inconclusive: 79.4 µM [inhibitor, partial curve, poor fit]
COC(=O)COc1ccc(-c2nnc(Nc3ccc(OC)cc3)c3ccccc23)cc1	inactive: -1.94%	–
O=C(NC1CCCC1)c1cnn2c(C(F)(F)F)cc(-c3ccco3)nc12	–	inactive and inconclusive: 25.1 µM [inhibitor, partial curve, poor fit]
Cc1ccc(S(=O)(=O)N2CCN(C(=O)C(C)Cn3cncn3)CC2)cc1C (stereo not given)	–	inconclusive: 39.8 µM [inhibitor, partial curve, poor fit]
CC1CCC(NC(=O)c2ccccc2Sc2ccccc2C#N)CC1 (stereo not given)	inactive: -25.9%	–
CCCCN1C(=O)C2(CC(=O)Nc3[nH]ncc32)c2ccccc21 (stereo not given)	inactive: 27.7%	–
CC(C)(C)OC(=O)CC[C@@H](C(=O)NCCCCCCCCCCC(=O)N1CCN(C(=O)OC(C)(C)C)CC1)n1cc(CCCCCNC(=O)OC(C)(C)C)nn1	inactive: -25.9%	–
COc1ccc(CNCc2sccc2C)cc1	inactive: -12.7%	–
COc1ccccc1N1CCN(CCn2c(=O)c3c(c4ccccc4n3C)n(C)c2=O)CC1	inactive: -10.5%	–
CC(C)n1nc(C2CCOC2)nc1-c1n[nH]c2ccccc12 (stereo not given)	inactive: 19.2%	–
Cc1ccc(S(=O)(=O)NCc2ccc3c(c2)cc(C)n3C)cc1	–	inconclusive: 35.5 µM [inhibitor, full curve, poor fit]
CCCc1n(CC(O)COCc2ccccc2)c2ccccc2[n+]1C (stereo not given)	–	inconclusive: 50.1 µM [inhibitor, partial curve, poor fit]
CSc1ccc(CNc2ncncc2-c2nc(-c3ccccc3)no2)cc1	inactive: 33.1%	–
Cn1c(=O)c2ccccc2n(C)c1=O	inactive: 11.8%	–
O=C(O)c1ccc(CN2CCC3(CC2)CC(C(=O)O)N(C(=O)C2CC2)C3)cc1 (stereo not given)	inactive: 1.65%	–
C=CCn1c(SCC(=O)Nc2cccnc2Cl)nnc1-c1ccc(Cl)cc1	inactive: 10.6%	–
CSc1ccc(CN2CCC(N3CCC(C(=O)NC4CC4)CC3)CC2)cc1	inactive: -1.27%	–
O=c1c(Cl)c(Oc2ccc(C(F)(F)F)cc2)cnn1-c1ccc(C(F)(F)F)cn1	inactive: -7.1%	–
CCOc1ccc(/C=C/C(=O)c2cccc(Br)c2)cc1OC	–	inconclusive: 35.5 µM [inhibitor, partial curve, poor fit]
CC(C)(C)N(Cc1ccccc1)C(=O)CN1C(=O)c2ccccc2S1(=O)=O	–	inconclusive: 44.7 µM [inhibitor, partial curve]
CN[C@@H]1CN(c2ccc3c(=O)c(C(=O)O)cn(-c4nccs4)c3n2)C[C@@H]1OC	–	inconclusive: 10.6 µM [inhibitor, single point]
COc1ccc(CNC(=O)c2cc3n(n2)CC(c2ccc4c(c2)OCO4)OC3)cc1OC (stereo not given)	inactive: 1.39%	–

Exported as comma-separated lines: 21 of the compounds above.
Compound,"activity change, negative = inhibition",Potency
CN1C(=O)c2cccn2CC1CNC(=O)COc1ccccc1 (stereo not given),inactive: 53.4%,–
CCc1cccc2c(C(CC(=O)NCCc3ccc(OC)c(OC)c3)c3cccc(OC)c3)c[nH]c12 (stereo not given),–,"inconclusive: 20 µM [inhibitor, full curve, poor fit]"
CCc1ccc2c(c1)Sc1ccccc1CC2N1CCN(C)CC1 (stereo not given),–,"inconclusive: 79.4 µM [inhibitor, partial curve, poor fit]"
O=C(NC1CCCC1)c1cnn2c(C(F)(F)F)cc(-c3ccco3)nc12,–,"inactive and inconclusive: 25.1 µM [inhibitor, partial curve, poor fit]"
Cc1ccc(S(=O)(=O)N2CCN(C(=O)C(C)Cn3cncn3)CC2)cc1C (stereo not given),–,"inconclusive: 39.8 µM [inhibitor, partial curve, poor fit]"
CC1CCC(NC(=O)c2ccccc2Sc2ccccc2C#N)CC1 (stereo not given),inactive: -25.9%,–
CCCCN1C(=O)C2(CC(=O)Nc3[nH]ncc32)c2ccccc21 (stereo not given),inactive: 27.7%,–
CC(C)(C)OC(=O)CC[C@@H](C(=O)NCCCCCCCCCCC(=O)N1CCN(C(=O)OC(C)(C)C)CC1)n1cc(CCCCCNC(=O)OC(C)(C)C)nn1,inactive: -25.9%,–
COc1ccc(CNCc2sccc2C)cc1,inactive: -12.7%,–
COc1ccccc1N1CCN(CCn2c(=O)c3c(c4ccccc4n3C)n(C)c2=O)CC1,inactive: -10.5%,–
CC(C)n1nc(C2CCOC2)nc1-c1n[nH]c2ccccc12 (stereo not given),inactive: 19.2%,–
Cc1ccc(S(=O)(=O)NCc2ccc3c(c2)cc(C)n3C)cc1,–,"inconclusive: 35.5 µM [inhibitor, full curve, poor fit]"
CCCc1n(CC(O)COCc2ccccc2)c2ccccc2[n+]1C (stereo not given),–,"inconclusive: 50.1 µM [inhibitor, partial curve, poor fit]"
CSc1ccc(CNc2ncncc2-c2nc(-c3ccccc3)no2)cc1,inactive: 33.1%,–
Cn1c(=O)c2ccccc2n(C)c1=O,inactive: 11.8%,–
O=C(O)c1ccc(CN2CCC3(CC2)CC(C(=O)O)N(C(=O)C2CC2)C3)cc1 (stereo not given),inactive: 1.65%,–
C=CCn1c(SCC(=O)Nc2cccnc2Cl)nnc1-c1ccc(Cl)cc1,inactive: 10.6%,–
CSc1ccc(CN2CCC(N3CCC(C(=O)NC4CC4)CC3)CC2)cc1,inactive: -1.27%,–
CCOc1ccc(/C=C/C(=O)c2cccc(Br)c2)cc1OC,–,"inconclusive: 35.5 µM [inhibitor, partial curve, poor fit]"
CC(C)(C)N(Cc1ccccc1)C(=O)CN1C(=O)c2ccccc2S1(=O)=O,–,"inconclusive: 44.7 µM [inhibitor, partial curve]"
COc1ccc(CNC(=O)c2cc3n(n2)CC(c2ccc4c(c2)OCO4)OC3)cc1OC (stereo not given),inactive: 1.39%,–

Additional structures.

Compound	activity change, negative = inhibition	Potency
CC1=NN(c2ccccc2)C(=O)/C1=C/C=C/C=C/N(C)C	–	inconclusive: 50.1 µM [inhibitor, partial curve, poor fit]
COc1ccccc1Nc1ncc2c(n1)CN(C(=O)c1ccc(Cl)cc1)CCN2	–	inconclusive: 39.8 µM [inhibitor, full curve]
CC(=O)N1CCc2c(sc(NC(=O)C3CCCCC3)c2C(N)=O)C1	inactive: 17.6% [at 57.4 µM]	–
COc1ccccc1-c1coc2cc(OC(=O)c3ccc(C)cc3)ccc2c1=O	inactive: 22.7%	–
COc1cccc(C(C)(O)c2nc(-c3cccc(F)c3)cs2)c1 (stereo not given)	–	inconclusive: 89.1 µM [inhibitor, partial curve, poor fit]
CCCCCCCCCS(=O)(=O)N/N=C/c1cccc([N+](=O)[O-])c1	–	inconclusive: 35.5 µM [inhibitor, partial curve]
Clc1ccc2oc(-c3ccccc3)cc(=NCCCN3CCOCC3)c2c1	–	active: 14.1 µM
FC(F)(F)c1ccc(Cl)c(N/N=C/c2cccc3ccccc23)c1	–	inconclusive: 89.1 µM [inhibitor, partial curve, poor fit]
CCOC(=O)/C(=N/Nc1ccc(OC)cc1)Sc1nnc(CCc2ccccc2)n1-c1ccccc1	–	inconclusive: 44.7 µM [inhibitor, partial curve, poor fit]
COc1ccccc1NC(=O)C(=O)N1N=C(C(C)C)CC1(O)C(F)(F)F (stereo not given)	inactive: 21.5%	–
Cc1cc(C2=NNC(=NC3CC3)SC2)c(C)n1-c1ccccc1F	–	inconclusive: 44.7 µM [inhibitor, partial curve, poor fit]
CC(=O)N1CC2(CCCCN2CC2CC2)Cc2ccccc21 (stereo not given)	inactive: 6.52% [at 6.33 µM]	–
Cc1ccc2c(c1)c1c3n2CCCNC3CCC1 (stereo not given)	inactive: -18.6%	–
Cc1noc(-c2cn(C3CCN(C(=O)C(C)Oc4ccc(Cl)cc4)CC3)nn2)n1 (stereo not given)	inactive: 34.1%	–
Cc1ccc(NC(=O)N2CCN(c3nnnn3-c3ccc(Cl)c(C)c3)CC2)cc1F	inactive: -1.91% [at 6.33 µM]	–
CCN1CCN(C(C(=O)O)c2cn(CCC(=O)O)c3cc(Br)ccc23)CC1 (stereo not given)	–	inconclusive: 4.47 µM [inhibitor, full curve, poor fit]
COCCCNC(=O)c1cc(C2CC2)nc2onc(C3CCCN3)c12 (stereo not given)	–	inconclusive: 22.4 µM [inhibitor, full curve]
C=CCNc1nc2c(c(=O)[nH]c(=O)n2C)n1CCOc1ccccc1	–	inconclusive: 100 µM [inhibitor, partial curve, poor fit]
COC(=O)CCC1CCCCC12OCCO2 (stereo not given)	–	inconclusive: 112 µM [inhibitor, single point]
Cc1noc([C@@H]2CN(C(=O)CCCc3nc4ccccc4s3)C[C@H]2C(N)=O)n1	inactive: 19.6%	–
COc1ccc(S(=O)(=O)Nc2cc3c4c(c2)CCC(=O)N4CCC3)cc1	–	inconclusive: 44.7 µM [inhibitor, partial curve, poor fit]
Cc1ccc(-n2c(C3CCN(C(=O)c4ccc(C(F)(F)F)cc4)CC3)n[nH]c2=O)cc1	–	inconclusive: 39.8 µM [inhibitor, partial curve]
CCc1ccc(Nc2ncnc3c2cnn3-c2cc(Cl)ccc2C)cc1	–	inconclusive: 112 µM [inhibitor, partial curve, poor fit]
CCOc1ccccc1CC1C(=O)Nc2ccc(Br)cc21 (stereo not given)	–	inconclusive: 126 µM [inhibitor, single point]

Compound	activity change, negative = inhibition	Potency
Cn1cnnc1Sc1ccc(CN2CCOc3ccc(C4=Cc5ccccc5CC4)cc3C2)o1	–	inconclusive: 112 µM [inhibitor, single point]
CCOC(=O)c1c(C)n(CC)c2ccc(OC(=O)c3ccccc3C)cc12	–	inconclusive: 141 µM [inhibitor, partial curve, poor fit]
CC=C(C(=CC)c1ccc(O)cc1)c1ccc(O)cc1	–	inconclusive: 17.2 µM [inhibitor, partial curve, poor fit]
Cc1nc2cc(F)ccc2n1C1CCN(S(=O)(=O)c2ccccc2)CC1	–	inconclusive: 100 µM [inhibitor, single point]
CCS(=O)(=O)c1cc([N+](=O)[O-])c(Sc2ccccc2NC(C)=O)s1	–	active: 14.1 µM
N=C1C(c2nc3ccccc3c(=O)[nH]2)=C(O)CN1c1ccc(Cl)cc1Cl	inactive: -12.1%	–
C#CCN(C[C@H]1[C@H](OC(=O)NCCCCCC)[C@H](OC(=O)NCCCCCC)C[C@@H](C(=O)OC)[C@H]1C(=O)OC)S(=O)(=O)c1ccc(C)cc1	inactive: -26.2%	–
Cc1ccc(C(=O)C(C#N)C(=O)NC2CCCCC2)cc1C (stereo not given)	–	inconclusive: 6.31 µM [inhibitor, full curve, poor fit]
CC(C)CNc1nc(-c2ccc(S(=O)(=O)N3CCOCC3)cc2)cs1	–	inconclusive: 44.7 µM [inhibitor, partial curve, poor fit]
COCCNc1nc2c([S+](=O)([O-])c3cccnc3)nnn2c2ccccc12	inactive: 1.94% [at 6.33 µM]	–
COc1cccc(C(=O)/C=C2\Sc3ccccc3N2C)c1	–	inconclusive: 44.7 µM [inhibitor, partial curve]
COc1cc(=O)n(-c2ccc(F)cc2)nc1C(=O)Nc1ccccc1SC	inactive: -9.2%	–
COC(=O)c1cc(C(=O)OC)cc(S(=O)(=O)N2CCCC2c2nc3ccccc3[nH]2)c1 (stereo not given)	inactive: -3.91%	–
O=C(NCC1CC1)C1(C(F)(F)F)CC(CCCO)CCCO1 (stereo not given)	inactive: 23.8%	–
COc1ccc(C(=O)COC(=O)C2(c3ccccc3)CCCC2)cc1F	inactive: -4.28%	–
CN(CC(=O)Nc1cccc(F)c1)C(=O)c1ccc2c(c1)OCCO2	–	inconclusive: 79.4 µM [inhibitor, partial curve, poor fit]
COc1cccc(C(c2c(O)cc(C)n(Cc3ccco3)c2=O)N2CCN(c3ccccc3)CC2)c1 (stereo not given)	–	inconclusive: 56.2 µM [inhibitor, partial curve, poor fit]
CC(=O)Oc1c(/C=C(\C#N)C(N)=O)[nH]c2ccccc12	–	inconclusive: 50.1 µM [inhibitor, partial curve, poor fit]
Cc1ccc(SC/C(O)=C(\C#N)c2nc3ccccc3s2)cc1	inactive: -34.7%	–
CCC(O)CC(C(=O)NNc1ccccc1)C(=O)NNc1ccccc1 (stereo not given)	–	active: 11.2 µM
O=C(/C=C/c1cn(CC(O)CN2CCCCC2)c2ccccc12)c1cccs1 (stereo not given)	–	inconclusive: 44.7 µM [inhibitor, partial curve, poor fit]
COc1ccccc1OC1=NS(=O)(=O)c2ccccc21	–	inconclusive: 39.8 µM [inhibitor, partial curve, poor fit]
